Measurements from PubChem BioAssay AID588497 (NMMLSC, 2011).
The whole screen tested about 360,000 compounds, of which about 780 (0.22%) were called active. This list was built around the results that the source calls inconclusive (neither active nor inactive); the mix of calls is not that of the screen. No stated cut-off is given here; in the data, active means inhibition above about 35% (passing the limit was not always enough); inconclusive means no clear call, values can overlap the other calls.

Tested on: Botulinum neurotoxin type F light chain protease (Clostridium botulinum)
Experiment: BoNT/F light chain protease inhibitors, primary screen, biochemical, flow cytometry, MLPCN library (AID 588497); further: plate controls were buffer without enzyme for full effect and enzyme alone for no effect
Conditions: Multiplex microsphere protease cleavage assay, at 10 µM, stronger effect = higher value

Structure (SMILES)	inhibition
O=C(CCc1nnc(CCc2c[nH]c3ccccc23)o1)NC1CCC1	inactive: -2.7%
CCSc1nc2sc3c(c2c(=O)n1CC)CCC3	inconclusive: -15.3%
CCC12CSc3nc(Cl)ccc3N1C(=O)C(=O)N2C (stereo unspecified)	active: 39.8%
Nc1nc(NCc2ccco2)nc(NCCO)c1[N+](=O)[O-]	inconclusive: -106%
O=C(CSc1cccc[n+]1[O-])c1ccc(Cl)s1	inactive: -4.3%
CN(C(=O)c1cccc(Cl)c1)C1CCCN(Cc2ccccc2F)C1 (stereo unspecified)	inactive: -1.9%
O=C(c1ccco1)N1CCN(C(=O)c2cc3ccccc3oc2=O)CC1	inconclusive: 7.3%
CC(=O)c1c(OC(=O)c2cccc(Cl)c2)c2ccccc2n1C	inconclusive: 120%
Cc1oc(C(=O)Nc2ccc(C(=O)O)cc2)cc1COc1ccccc1	inactive: -3%
CCc1ccc(NC(=O)Cn2cc([N+](=O)[O-])nc2C)cc1	inconclusive: -4.8%
CC(=O)NC(c1ccccc1)c1nc(-c2ccc(S(C)(=O)=O)cc2)cs1 (stereo unspecified)	inactive: -5.4%
C=CCn1c(Cc2ccc(OC)cc2)nnc1SCC(N)=O	inactive: 2.5%
CN(C(=O)c1cc2ccccc2o1)c1c(N)n(Cc2ccccc2)c(=O)[nH]c1=O	inactive: -2%
COc1cc(NC(=O)CSc2nc(=O)n(CCN3CCOCC3)c3c2CCCC3)cc(OC)c1	inconclusive: 15%
CC1(C)CC(=O)C(C(c2ccc(Br)cc2)C2C(=O)CC(C)(C)CC2=O)C(=O)C1	inconclusive: 22.5%
CCOc1ccc(NC(=O)c2ccc3c(c2)S(=O)(=O)N=C2CCCCCN23)cc1	inactive: -4.4%
CC(C)Cc1nc(Cl)c(C#N)c2c1CCC2	inconclusive: -3.4%
CN1CCN2c3ccc(N)cc3CC3(C(=O)NC(=O)NC3=O)C2C1 (stereo unspecified)	inconclusive: -57.1%
COc1cc2c(cc1OC)[C@@H](Cc1ccc(OCCC#N)cc1)N(C)CC2	active: 39.8%
Clc1cccc(-c2cccc3nccn23)c1Cl	inactive: -0.7%
CN(CCC(=O)c1ccccc1)CCC(=O)c1ccccc1	inconclusive: -4.7%
COc1ccc(C(=O)NC2CCN(S(=O)(=O)c3ccc(F)cc3)CC2)cc1	inconclusive: 31.4%
CNc1ccc(Br)cc1C(O)c1ccccc1 (stereo unspecified)	inconclusive: 111%
COc1cccc(CNc2nc3ccccc3n2C)c1O	inconclusive: -19.3%
CCOc1ccc(NC(=O)Nc2cc(C(C)C)ccc2C)cc1	inconclusive: 12.4%
CN(C)S(=O)(=O)c1ccc(NC(=O)CN2CCCc3ccccc32)cc1	inactive: -16.7%

Quoted from the listing:
Value for CN(C(=O)c1cc2ccccc2o1)c1c(N)n(Cc2ccccc2)c(=O)[nH]c1=O under inhibition: inactive: -2%
Value for O=C(c1ccco1)N1CCN(C(=O)c2cc3ccccc3oc2=O)CC1 under inhibition: inconclusive: 7.3%
